Assay results from patent publication US20060106005A1, “Funtionalised metallocenes as anticancer drugs” (priority 2003, published 2006).

System: MCF-7
Assay: Sensitivity of cell lines to Cisplatin and Ti compounds (MCF-7)
Type: cell-based

N.N.[Cl][Pt][Cl] [Cisplatin, cisplatin, reference compound]
IC50: 9 µM
